Results reported in the supplement of paper PMC7858590.
± gives the standard deviation of the averaged measurements. Whole data set: some 3,800 compounds, median “cell shape (eccentricity) Z-score vs DMSO control” near 1.1, cut for the lowest 2% near -4.7. The list shows a part of the results.

These molecules were tested on human monocyte-derived macrophages (M0) (assay: cell shape (eccentricity) Z-score vs DMSO control; higher = more elongated, M2-like morphology). Details: 20 µM; 24 h; macrophage state: M0 (M-CSF).

SMILES | cell shape (Z-score)
CN(C(=O)Cc1ccc(Cl)c(Cl)c1)[C@H](CN1CCCC1)c1ccccc1 | 0.788
COc1ccc(/C=C/c2cc(O)cc(O)c2)cc1 | 1.13
COC(=O)c1cncn1C(C)c1ccccc1 (configuration not stated) | -2.15
O=C(O)COc1cc(Cl)c(Cl)cc1Cl | 2.09
CCCN(CCC)[C@@H]1CCc2cccc(O)c2C1 | 1.32
CC(CC(C(N)=O)(c1ccccc1)c1ccccc1)N(C)C (configuration not stated) | 0.994
CN1C(=O)c2ccccc2NC(=O)[C@]12O[C@@H]2c1ccccc1 | 0.776
CN1CC(CNC(=O)OCc2ccccc2)C[C@H]2c3cccc4c3c(cn4C)CC21 (some centres not stated) | 1.44
c1cncc([C@@H]2CCCCN2)c1 | 3.61
COc1ccc2c(c1OC)C(=O)O[C@@H]2[C@H]1c2cc3c(cc2CCN1C)OCO3 | 1.85
Cc1c(N)nc([C@H](CC(N)=O)NC[C@@H](N)C(N)=O)nc1C(=O)N[C@H](C(=O)N[C@@H](C)[C@H](O)[C@@H](C)C(=O)N[C@@H](C(=O)NCCc1nc(-c2nc(C(=O)NCCC[S+](C)C)cs2)cs1)[C@@H](C)O)C(O[C@H]1O[C@H](CO)[C@H](O)[C@@H](O)[C@H]1O[C@H]1O[C@H](CO)[C@@H](O)[C@H](OC(N)=O)[C@@H]1O)c1c[nH]cn1 (some centres not stated) | 0.636
FC(F)(F)c1cccc(N2CCNCC2)c1 | 1.7
C=CCN1CC(C(=O)N(CCCN(C)C)C(=O)NCC)CC2c3cccc4[nH]cc(c34)CC21 (configuration not stated) | -1.01
C/C=C/c1ccc2c(c1)OCO2 | 2.7
Cc1cc(C(=O)CN2CCCC2)c(C)n1-c1ccc(F)cc1 | 2.25
CC(C)c1cc2c(cc1O)[C@@]1(C)C[C@@H](O)CC(C)(CO)C1CC2 (some centres not stated) | 3.19
CC(C)(C)NCC(O)c1ccccc1Cl (configuration not stated) | 2.94
CCCN(CCC)[C@@H]1CCc2c(OC)cccc2[C@@H]1C | 4.64
CC(C)c1cc2c(cc1O)[C@@]1(C)CCCC(C)(C)[C@@H]1CC2O (some centres not stated) | 0.729
CN(C)C(=S)SSC(=S)N(C)C | 5.26

SMILES | cell shape (Z-score)
COc1ccc(C(=O)N2CCCC2=O)cc1 | 2.64
CC1(C)CCC[C@]2(C)c3cc(O)c(O)cc3C(=O)CC12 (some centres not stated) | 1.44
C[N+]12CCC(CC1)C(OC(=O)C(O)(c1ccccc1)c1ccccc1)C2 (configuration not stated) | 1.72
CC1CCC/C=C\C2CC(O)CC2C(O)/C=C\C(=O)O1 (configuration not stated) | 0.397
C=CCN1C[C@H](C)N([C@H](c2ccc(C(=O)N(CC)CC)cc2)c2cccc(OC)c2)C[C@H]1C | 3.78
CC(N)Cc1c[nH]c2ccc(O)cc12 (configuration not stated) | 1.41
CN1c2ccccc2C(NCCCCCCC(=O)O)c2ccc(Cl)cc2S1(=O)=O (configuration not stated) | 0.787
C[C@@H]1Cc2c(Cl)cc(C(=O)N[C@@H](Cc3ccccc3)C(=O)O)c(O)c2C(=O)O1 | 2.05
C1CN2CCC1CC2 | -0.128
CN(C(=O)Cc1ccc(Cl)c(Cl)c1)C(CN1CCCC1)c1cccc(OCC(=O)O)c1 (configuration not stated) | -0.643
CCCN(CCC)C1CCc2ccc(O)cc2C1 (configuration not stated) | -0.796
CC(C)C(O)(C(=O)OCC1=CCN2CCC(O)C12)C(C)O (configuration not stated) | 0.823 ± 2.3
C/C=C(\C)C(=O)OC1C(C)=C2C(C1OC(=O)CCCCC)C(C)(OC(C)=O)CC(OC(=O)CCC)C1(O)C2OC(=O)C1(C)O (configuration not stated) | 1.67
Oc1cc(Cl)ccc1Oc1ccc(Cl)cc1Cl | 2.88
CC[C@@H](CO)NC(=O)[C@@H]1C=C2c3cccc4c3c(cn4C)C[C@H]2N(C)C1 | 1.68
O=C(O)c1ccc2[nH]cc(CCCCN3CC=C(c4ccccc4)CC3)c2c1 | 0.151
CCCN1CCC[C@@H]2Cc3nc(N)ncc3C[C@H]21 | 4.21
COC1=CC(=O)O[C@@H](CCc2ccc3c(c2)OCO3)C1 | -1.18
Clc1cccc(N2CCNCC2)c1 | 3.51
O=C(O)C1=CCCN(CCOC(c2ccc(C(F)(F)F)cc2)c2ccc(C(F)(F)F)cc2)C1 | 1.96
NCCc1ccccn1 | 2.36

Molecules from the list above that contain fluorine:
SMILES | cell shape (Z-score)
FC(F)(F)c1cccc(N2CCNCC2)c1 | 1.7
Cc1cc(C(=O)CN2CCCC2)c(C)n1-c1ccc(F)cc1 | 2.25
O=C(O)C1=CCCN(CCOC(c2ccc(C(F)(F)F)cc2)c2ccc(C(F)(F)F)cc2)C1 | 1.96

Additional records.

SMILES | cell shape (Z-score)
C[N+]12CC[C@@]34c5ccccc5N5C(=O)CC6OCC=C(C1)[C@H](CC32)[C@@H]6C54 (some centres not stated) | -0.173
CC(C)(C)NC[C@H](O)COc1cccc2[nH]c(C#N)cc12 | 1.39
CN1C[C@H](CNC(=O)OCc2ccccc2)C[C@@H]2c3cccc4c3c(cn4C)C[C@H]21 | -1.59
Cc1ccc2c(c1)C1(CCN(CCc3nc(-c4ccccc4)oc3C)CC1)OC(=O)N2 | 0.325
COc1ccc(Cc2nccc3cc(OC)c(OC)cc23)cc1OC | -1.22
Cn1cc(C(=O)C(=O)N[C@H]2CN3CCC2CC3)c2ccccc21 | 0.679
C(=Cc1ccccc1)CN1CCN(CCOC(c2ccccc2)c2ccccc2)CC1 | 1.98
COc1cc([C@@H]2c3cc4c(cc3[C@H](OC(C)=O)[C@H]3COC(=O)[C@H]23)OCO4)cc(OC)c1OC | 9.18
CN1C(=O)[C@@H](NC(=O)c2cc3ccccc3[nH]2)N=C(c2ccccc2)c2ccccc21 | 0.677
CC(C)(c1ccc(OCC2CO2)cc1)c1ccc(OCC2CO2)cc1 (configuration not stated) | 1.24
CCNC(=O)C1OC(n2cnc3c(N)ncnc32)C(O)C1O (configuration not stated) | 4.21
COc1cccc([C@]2(O)CCCC[C@H]2CN(C)C)c1 | 3.18
CC(C)(C)NCC(O)c1cc(Cl)c(N)c(Cl)c1 (configuration not stated) | 4.41
Cn1c(CCCC(=O)O)nc2cc(N(CCCl)CCCl)ccc21 | 0.618 ± 1.1
COC(=O)C1=CCCN(C)C1 | 2.09
C[C@@H]1O[C@@H](O[C@@H]2C=C3CC[C@@H]4C(C[C@@H](O)[C@]5(C)[C@@H](c6ccc(=O)oc6)CC[C@]45O)[C@@]3(C)CC2)[C@H](O)[C@H](O)[C@H]1O[C@@H]1O[C@H](CO)[C@@H](O)[C@H](O)[C@H]1O (some centres not stated) | -1.17 ± 1.1
CCCC[C@@H](C)[C@@H](OC(=O)C[C@@H](CC(=O)O)C(=O)O)[C@H](CC(C)C[C@H](O)CCCC[C@@H](O)C[C@H](O)[C@H](C)N)OC(=O)C[C@@H](CC(=O)O)C(=O)O (some centres not stated) | -4.01
CNC(=O)Oc1ccc2c(c1)[C@]1(C)CCN(C)[C@@H]1N2C | 1.01
COc1ccc(C(=O)c2c(C)n(CCN3CCOCC3)c3cc(I)ccc23)cc1 | 1.96
Oc1ccc2c3c1OC1c4c(c5ccccc5n4Cc4ccccc4)CC4(O)C(C2)N(CC2CC2)CCC314 (configuration not stated) | -0.456

Reprinted at random: two compounds from above
SMILES | cell shape (Z-score)
CNC(=O)Oc1ccc2c(c1)[C@]1(C)CCN(C)[C@@H]1N2C | 1.01
COc1ccc(C(=O)c2c(C)n(CCN3CCOCC3)c3cc(I)ccc23)cc1 | 1.96
